For at least one compound, name, drawing or mass did not settle the structure.
Key:
Format in all cases: cell-based, human
CFPAC cells = assay: Iodide efflux protocol in CFPAC cells; details: CF pancreatic ductular cells (CFPAC), FIG. 1
Description: (§1) The iodide efflux protocol is a conventional test for the existence of anion permeability pathways, including both CFTR (cAMP-activated) and non-CFTR permeability pathways (e.g., Ca^2+-activated Cl^− transport). […] Ionomycin, a Ca^2+ ionophore, is known to activate non-CFTR-type anion efflux pathways in CFPAC cells by increasing intracellular Ca^2+.
(§2) Epithelial cells in the pancreatic ducts, lung, and colon secrete fluid and electrolytes into the pancreatic ductular lumen, airways and intestinal lumen, respectively. The inability to secrete anions in response to a cAMP-dependent agonist such as forskolin is a hallmark of the CF phenotype. […] Methods: Iodide efflux. Iodide efflux was performed as previously described (Venglarik et al., Am. J. Physiol. 259:C358-C364, 1990, and Drumm et al., Cell 62:1227-1233, 1990) Cells were grown on […] culture dishes, and effluxes were performed when the cells were 80-100% confluent using a phosphate buffered Ringer's solution. Cells were loaded with ^125I (2-5 μCi/ml) for 30 minutes and then washed with PBS to remove extracellular ^125I. Efflux was detected by measuring the radioactivity in the extracellular solution which was changed every 15 seconds. At specific points, compounds were added to the cells. Increases in the rate of efflux after addition of a compound indicates the activation of an anion permeability pathway.

[1] = tested on: primary airway cells taken from a CF patient; assay: Iodide efflux protocol in primary airway cells taken from a CF patient; details: FIG. 2
Procedure: as §2

T84 cells = assay: Iodide efflux protocol in T84 colonic epithelial cells; details: T84 cells expressing high levels of CFTR
Description: as §1, §2

CFPAC-1 cell monolayers = assay: Short circuit current (ISC) in CFPAC-1 cell monolayers, Ussing chamber; details: 10 μM
Procedure: FIG 4. Cl^- secretion in CFPAC-1 cells. CFPAC-1 cell monolayers were grown to confluency on permeable supports (Millipore) for 10 days. Filters were mounted in an Ussing chamber, and short circuit current measurement was carried out as previously described ([…] and Dawson, Am. J. Physiol. 251:[…]-[…], 1986). […] The compounds were screened using different concentrations of drugs and adding them to alternate surfaces of the filters (mucosal; serosal; mucosal and serosal). The effects of forskolin (10 μM), UTP (100 μM) CPX (100 μm) and duramycin (5 μm) were also studied. […] Explants of CF nasal polyps (primary airway epithelial cells) and control, non-CF colonic epithelial cells (T84) containing wild-type CFTR were also studied. […] In other words, these experiments raise the possibility that Cl^- secretion effects of drugs such as adenosine, milrinone, IBMX, or forskolin might be increased by compounds employed in the present invention by a conjoint therapy treatment. […] The ISC occurs after mucosal, but not serosal addition of the compound.

C=C[C@@]1(C)CC(=O)[C@]2(O)[C@@]3(C)[C@@H](O)CCC(C)(C)[C@@H]3[C@H](O)[C@H](OC(C)=O)[C@@]2(C)O1 [forskolin, reference compound]
iodide (anion) efflux (CFPAC cells): lack forskolin-activated anion permeability pathways
iodide (anion) efflux [1]: lack forskolin-activated anion permeability pathways
iodide (anion) efflux (T84 cells): strong activation of anion efflux
ISC / transepithelial Cl- secretion (CFPAC-1 cell monolayers): do not mediate Cl^− secretion
